Measured values: patent US20190365927A1, “COMPOSITION FOR PHOTODYNAMIC THERAPY USING GENE EXPRESSING FLUORESCENT PROTEIN AND PHOTOSENSITIZER, AND PHOTODYNAMIC THERAPY METHOD USING SAME” (priority 2017, published 2019)
At least one structure is not confirmed: it was looked up by name or label, or the drawing left a doubt.

Test system: GFP+ A549, RFP+ A549 and YFP+ A549 cells
Experiment: In vitro PDT of GFP+, RFP+ and YFP+ cells with photosensitizer, MTT analysis
Format: cell-based, human
Conditions: 1 μM, yellow laser light (570 nm), FIG. 21, 22
Description: Photo inducing death of GFP+, RFP+, and YFP+ cells via the photosensitizer was measured by MTT analysis. The specific experimental procedure is as follows.
To investigate photo inducing death of GFP+ cells, RFP+ cells, and YFP+ cells via the photosensitizer, rose bengal, hematoporphyrin (Sigma-aldrich #5518) or 5-ALA (5-Aminolevulinic acid hydrochloric, Sigma-aldrich # A3785) was diluted with RPMI medium containing 10% FBS. 1 μM concentration of rose bengal, hematoporphyrin or 5-ALA was prepared. Further, GFP+ A549 cells, RFP+ A549 cells and YFP+ A549 cells selected from the 1-4 were pre-incubated at a density of 5×10^3 cells per well on 96-well, black, and clear bottom plates. A549 cells with pcDNA 3.1 vector injected thereto were cultured as control. Then, each of the photosensitizers as produced was applied or not applied to the preincubated cells in the preincubated cells which in turn were cultured for 4 hours. After 4 hours, the cells were washed three times with PBS buffer. Irradiation or non-irradiation of blue laser light (488 nm; radiation dose rate=2 J/cm^2) or yellow laser light (570 nm; radiation dose rate=2 J/cm^2) thereto was carried out for 5 seconds. After irradiation or non-irradiation, a fresh culture medium was added to the wells. The cells were cultured again for 24 hours. MTT analysis was then performed.

SMILES: CC1=C(CCC(=O)O)c2cc3[nH]c(cc4nc(cc5[nH]c(cc1n2)c(C)c5C(C)O)C(C)=C4C(C)O)c(C)c3CCC(=O)O (centres unmarked) [hematoporphyrin]
- cell death effect in YFP+ cell and RFP+ cell: significant cell death effect
- cell death effect of RFP+ cell: remarkable cell death effect
